Source: patent publication US4939175A, “Use of N,N-dimethyl-1-[1-(4-chlorophenyl)cyclobutyl]-3-methylbutylamine” (priority 1988, dated 1990)

Tested on: re-uptake of ^3 H-dopamine
Experiment: Re-uptake of 3H-dopamine in vitro (synaptosomes, P2 fraction of whole brain)
Type: biochemical, Std: Wistar strain male rat
Conditions: Experiment II, rat brain synaptosomes, 37° C., 20 minutes
Procedure: Effect of the test samples on the re-uptake of ^3 H-dopamine in vitro
P2 fraction was prepared from the whole brain of Std: Wistar strain male rat. […] The obtained mixture was incubated at 37° C. for 20 minutes and then subjected to the suction filtration with Whatman GF/B filter paper.
The obtained filter paper was put in a vial containing 10 ml of toluene type scintillator and its radioactivity was measured by means of liquid scintillation counter. The amount of the specific re-uptake of ^3 H-dopamine was obtained by subtracting the amount of re-uptake at 0° C. as blank.

## CNCCCC12CCC(c3ccccc31)c1ccccc12 [Maprotiline, maprotiline]
  IC50: 13 µM
